Values are relative to the signal before dosing, not to a vehicle control; the signal also falls without drug.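 Labels refer to human fibroblasts, largely primary: uterine (C12385, HUF), lung (H6013), bone (Hs27A), adrenal (HADF), skin (WS1), plus mammary HMF and breast cancer-associated Hs343T. Cancer lines are basal-like or mesenchymal-like triple-negative breast cancer. The paper counts as hits responses shifting over 3x the replicate standard deviation. The tissue of the other fibroblasts is not given here.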
Test system: HCC1143
Assay: relative JC-1 red fluorescence (viability) vs pre-drug, coculture with fibroblast (fraction); higher = more viable cancer cells
Details: 1 µM
Method: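 JC-1 labelled TNBC cells cocultured 1:1 (1,500 cells each) with CellTrace Violet stained primary or stromal fibroblasts in 384-well plates in FluoroBrite medium, treated with one of 42 anticancer drugs at 0.1, 1, 10 or 100 uM. JC-1 red fluorescence (mitochondrial integrity in cancer cells only) was read by plate reader every 8 h for 72 h. Values are normalised to each well's pre-drug value. The stock of one drug was tenfold lower, so its dose labels may be too high.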

CO[C@@]12[C@H](COC(N)=O)C3=C(C(=O)C(C)=C(N)C3=O)N1C[C@@H]1N[C@@H]12 [Mitomycin C]
relative JC-1 red fluorescence
Details	8 h	16 h	24 h	32 h	40 h	48 h	56 h	64 h	72 h
coculture fibroblast: C12385	0.829	0.798	0.752	0.689	0.62	0.5806	0.5512	0.52	0.504
coculture fibroblast: H6013	0.721	0.657	0.6209	0.594	0.52	0.497	0.458	0.436	0.398
coculture fibroblast: H6019	0.7909	0.711	0.657	0.588	0.536	0.501	0.456	0.419	0.383
coculture fibroblast: H6076	0.7797	0.774	0.705	0.648	0.599	0.57	0.531	0.507	0.497
coculture fibroblast: H6231	0.8034	0.765	0.7	0.615	0.6	0.57	0.53	0.493	0.478
coculture fibroblast: HADF	0.714	0.645	0.607	0.599	0.51	0.481	0.455	0.427	0.417
coculture fibroblast: HCFa	0.7545	0.668	0.612	0.583	0.502	0.466	0.427	0.395	0.366
coculture fibroblast: HCPF	0.787	0.778	0.706	0.607	0.625	0.58	0.55	0.512	0.488
coculture fibroblast: HHSteC	0.798	0.74	0.698	0.662	0.595	0.567	0.537	0.509	0.462
coculture fibroblast: HMF	0.762	0.792	0.713	0.6	0.598	0.571	0.522	0.502	0.479
coculture fibroblast: HPFa	0.883	0.793	0.763	0.678	0.621	0.587	0.533	0.497	0.456
coculture fibroblast: HUF	0.846	0.76	0.71	0.634	0.586	0.557	0.508	0.473	0.443
coculture fibroblast: Hs5	0.8455	0.8082	0.7891	0.7919	0.717	0.702	0.69	0.677	0.683
coculture fibroblast: Hs27A	0.689	0.629	0.588	0.611	0.505	0.51	0.49	0.484	0.474
coculture fibroblast: Hs343T	0.76	0.769	0.709	0.606	0.586	0.548	0.496	0.479	0.445
coculture fibroblast: WS1	0.7918	0.706	0.667	0.602	0.555	0.513	0.476	0.449	0.42
